Experimental data: patent US20240279337A1
No constants are given. Whether binding was seen depends on the method and setting. Some entries that bind do so weakly or less than the wild type.

Assays:
[1] = target: T1, human CD276 (B7-H3) on human TNBC cells (MDA-MB-231, MDA-MB-468) (human) (UniProt Q5ZPR3); assay: in vivo and ex vivo IVIS imaging, Cy5.5-labelled mAb, MDA-MB-468-FLuc xenograft in NSG mice
T1 sequence (looked up): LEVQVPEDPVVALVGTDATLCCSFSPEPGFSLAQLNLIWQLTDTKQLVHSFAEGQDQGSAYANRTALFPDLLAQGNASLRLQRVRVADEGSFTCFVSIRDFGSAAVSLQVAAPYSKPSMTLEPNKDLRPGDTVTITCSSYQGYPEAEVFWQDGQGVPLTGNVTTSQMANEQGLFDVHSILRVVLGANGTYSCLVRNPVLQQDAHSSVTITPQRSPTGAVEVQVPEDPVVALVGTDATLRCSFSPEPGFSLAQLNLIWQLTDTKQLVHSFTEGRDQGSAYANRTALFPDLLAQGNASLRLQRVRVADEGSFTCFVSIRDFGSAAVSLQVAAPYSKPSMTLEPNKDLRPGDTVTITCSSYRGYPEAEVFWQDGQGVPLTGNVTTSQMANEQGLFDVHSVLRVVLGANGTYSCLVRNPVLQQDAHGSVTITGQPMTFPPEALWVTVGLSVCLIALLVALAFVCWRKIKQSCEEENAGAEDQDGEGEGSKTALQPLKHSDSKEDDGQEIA

[2] = target: T1, human CD276 (B7-H3) on human TNBC cells (MDA-MB-231, MDA-MB-468) (human); assay: live-cell confocal microscopy, MDA-MB-468 cells
[3] = target: T2, mouse CD276 on mouse TNBC 4T1 cells (mouse) (UniProt Q8VE98); assay: live-cell confocal microscopy, 4T1 cells
T2 sequence (looked up): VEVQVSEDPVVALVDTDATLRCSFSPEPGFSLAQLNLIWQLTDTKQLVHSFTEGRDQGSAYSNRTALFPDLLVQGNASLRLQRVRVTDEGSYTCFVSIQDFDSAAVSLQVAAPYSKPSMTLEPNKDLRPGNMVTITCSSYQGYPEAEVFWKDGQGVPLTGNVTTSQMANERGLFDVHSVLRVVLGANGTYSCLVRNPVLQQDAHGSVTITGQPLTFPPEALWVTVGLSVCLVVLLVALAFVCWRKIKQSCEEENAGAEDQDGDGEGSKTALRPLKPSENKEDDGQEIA

[4] = target: T2, mouse CD276 on mouse TNBC 4T1 cells (mouse); assay: in vivo and ex vivo IVIS imaging, Cy5.5-labelled mAb, 4T1-FLuc tumours in BALB/cJ mice
[5] = target: T2, mouse CD276 on mouse TNBC 4T1 cells (mouse); assay: live-cell confocal microscopy, 4T1 cells (legend of FIG. 3)
[6] = target: T1, human CD276 (B7-H3) on human TNBC cells (MDA-MB-231, MDA-MB-468) (human); assay: live-cell confocal microscopy, MDA-MB-468 cells (legend of FIG. 3)

binding [1]: binds | binding [2]: binds | binding [3]: binds | binding [4]: binds | binding [5]: binds | binding [6]: binds
B1: anti-CD276 mAb (top hybridoma clone, IgG2b/kappa) (antibody, V domains shown)
VH: EVQLQQSGPELVKPGASVKISCKTSGYTFTEYTMHWVKQSHGKSLEWIGSNNPNTGGTTYNQKFKDKATLTVDKSSNTAYMELRSLTSDDSAVYYCSRSGNDVGWYFAVWGAGTTVTVSS
VL: QIVLTQSPAIMSASPGEKVTMTCTATSSVSYMHWYQQKSDSSPKRWIYDTSKLASGVPDRFSGSGSGTSYSLIISSMEAEDAATYYCQQWSSNPLTFGAGTKLELKR
